# Some entries share one result that the patent states for a list of compounds. For at least one compound, name, drawing or mass did not settle the structure.
# Test system: murine macrophage indicator cell line, RAW267.4
# Test: Inhibition of nitric oxide production in LPS-stimulated macrophages (Griess reaction)
# Type: cell-based
# Conditions: single substances; RAW267.4 cells, LPS 1 μg/ml, 24 hours; listed as cardoltriene
# Method: Pure substances were then further assayed in vitro in cellular cell systems. The inhibition of the synthesis of nitric oxide and/or pro-inflammatory prostaglandins (PG) by the compounds was measured. PGE2 plays a critical role in the inflammation process, while nitric oxide (NO) is a hallmark of inflammation in various chronic inflammatory diseases including various forms of arthritis, gastro-intestinal diseases and metabolic syndrome X. The effects of compounds on the inflammatory response were tested in cellular assays using a murine macrophage indicator cell line, RAW267.4. […]
# Substances were tested in a concentration range from 0.2 to 50 μM in two-fold dilution steps. […] Concentrations of nitrite which was rapidly formed from nitric oxide released by cells were determined by the Griess reaction using sodium nitrite as standard. Briefly, 50 μl of supernatant was mixed with Griess reagent 1 (25 μL) and Griess reagent 2 (25 μL), centrifuged and the optical density at 540 nm determined. PGE2 secreted into the cell culture medium was determined by EIA obtained from Cayman Chemicals (Ann Harbor, […]., USA) and used according to the manufacturer's instructions. […] IC50 values were calculated using a […] least-square fitting equation [y=A+((B−A)/(1+((C−x)̂D))] for best-fit curves (Excel fit software program).
compound,measurement,value
C=CC/C=C\C/C=C\CCCCCCCc1cc(O)cc(O)c1 [Cardoltriene],IC50,< 20 µM

# — US20090186942A1, “NOVEL NUTRACEUTICAL AND PHARMACEUTICAL COMPOSITIONS AND USE THEREOF FOR THE TREATMENT, CO-TREATMENT OR PREVENTION OF INFLAMMATORY DISORDERS” (priority 2006, published 2009)
